According to patent EP1593386A1:
These are yes or no findings as the source states them, for the method shown. In cells and extracts the contact can be indirect. Some entries that bind do so weakly or less than the wild type.

Sequences of proteins named here, by UniProt entry; tags and fusion partners are left off. Residues count along the entry.
UniProt P09564, residues 26-240: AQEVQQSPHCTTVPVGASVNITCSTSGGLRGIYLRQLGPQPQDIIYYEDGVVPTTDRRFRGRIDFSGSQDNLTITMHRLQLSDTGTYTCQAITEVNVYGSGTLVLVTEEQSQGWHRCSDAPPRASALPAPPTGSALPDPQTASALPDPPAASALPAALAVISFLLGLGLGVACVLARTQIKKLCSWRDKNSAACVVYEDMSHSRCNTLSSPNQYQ
UniProt P05556: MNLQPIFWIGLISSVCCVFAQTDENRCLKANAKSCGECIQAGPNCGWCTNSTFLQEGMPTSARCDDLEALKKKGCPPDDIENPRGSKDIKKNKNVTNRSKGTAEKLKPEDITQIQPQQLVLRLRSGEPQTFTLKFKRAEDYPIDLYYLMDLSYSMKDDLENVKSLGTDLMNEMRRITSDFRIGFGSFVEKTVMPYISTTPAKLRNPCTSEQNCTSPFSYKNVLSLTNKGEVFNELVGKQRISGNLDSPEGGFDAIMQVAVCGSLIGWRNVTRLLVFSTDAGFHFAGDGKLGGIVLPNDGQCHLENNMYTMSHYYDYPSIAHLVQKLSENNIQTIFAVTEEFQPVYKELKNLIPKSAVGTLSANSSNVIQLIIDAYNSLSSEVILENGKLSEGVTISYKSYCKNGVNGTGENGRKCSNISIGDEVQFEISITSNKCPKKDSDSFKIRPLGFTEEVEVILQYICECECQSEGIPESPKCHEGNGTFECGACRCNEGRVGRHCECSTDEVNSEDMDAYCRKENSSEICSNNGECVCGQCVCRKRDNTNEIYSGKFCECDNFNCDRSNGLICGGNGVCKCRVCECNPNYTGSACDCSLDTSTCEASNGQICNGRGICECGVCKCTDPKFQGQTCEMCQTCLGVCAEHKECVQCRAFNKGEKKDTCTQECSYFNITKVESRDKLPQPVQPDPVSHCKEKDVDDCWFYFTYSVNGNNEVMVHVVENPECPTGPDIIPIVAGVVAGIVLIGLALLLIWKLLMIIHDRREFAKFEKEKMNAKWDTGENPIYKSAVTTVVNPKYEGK

What was measured:
[1] = target: CD7 on human peripheral blood T lymphocytes (human) (UniProt P09564); assay: summary of the bead co-immunoprecipitation
[2] = target: integrin β1 on human peripheral blood T lymphocytes (human) (UniProt P05556); assay: summary of the bead co-immunoprecipitation
[3] = target: CD7 on human peripheral blood T lymphocytes (human) (UniProt P09564); assay: legend of Figure 3B: bead co-immunoprecipitation, immunoblot
[4] = target: integrin β1 on human peripheral blood T lymphocytes (human) (UniProt P05556); assay: as above
[5] = target: CD7 on human peripheral blood T lymphocytes (human) (UniProt P09564); assay: pull-down with galectin-1 coated tosyl-activated magnetic beads on PBT, immunoblot for CD7
[6] = target: integrin β1 on human peripheral blood T lymphocytes (human) (UniProt P05556); assay: pull-down with galectin-1 coated tosyl-activated magnetic beads on PBT, immunoblot for integrin β1

Measured: binding

galectin-1 (from UniProt P09382 2-135) (ligand)
binds: all assays above
